Experimental data taken from article PMC6925144, “A prospective compound screening contest identified broader inhibitors for Sirtuin 1” (Scientific Reports, 2019).
Whole data set: some 3,200 compounds, median “TSA(with NAD+) / Primary screening (TSA) / delta Tm (K)” near -0.04, cut for the highest 2% near 0.37. Some of the results follow.

Protein sequences, listed by entry. Tags and fused reporters are not part of them. Residues count along the entry.
UniProt Q96EB6, 2-747 limits assumed: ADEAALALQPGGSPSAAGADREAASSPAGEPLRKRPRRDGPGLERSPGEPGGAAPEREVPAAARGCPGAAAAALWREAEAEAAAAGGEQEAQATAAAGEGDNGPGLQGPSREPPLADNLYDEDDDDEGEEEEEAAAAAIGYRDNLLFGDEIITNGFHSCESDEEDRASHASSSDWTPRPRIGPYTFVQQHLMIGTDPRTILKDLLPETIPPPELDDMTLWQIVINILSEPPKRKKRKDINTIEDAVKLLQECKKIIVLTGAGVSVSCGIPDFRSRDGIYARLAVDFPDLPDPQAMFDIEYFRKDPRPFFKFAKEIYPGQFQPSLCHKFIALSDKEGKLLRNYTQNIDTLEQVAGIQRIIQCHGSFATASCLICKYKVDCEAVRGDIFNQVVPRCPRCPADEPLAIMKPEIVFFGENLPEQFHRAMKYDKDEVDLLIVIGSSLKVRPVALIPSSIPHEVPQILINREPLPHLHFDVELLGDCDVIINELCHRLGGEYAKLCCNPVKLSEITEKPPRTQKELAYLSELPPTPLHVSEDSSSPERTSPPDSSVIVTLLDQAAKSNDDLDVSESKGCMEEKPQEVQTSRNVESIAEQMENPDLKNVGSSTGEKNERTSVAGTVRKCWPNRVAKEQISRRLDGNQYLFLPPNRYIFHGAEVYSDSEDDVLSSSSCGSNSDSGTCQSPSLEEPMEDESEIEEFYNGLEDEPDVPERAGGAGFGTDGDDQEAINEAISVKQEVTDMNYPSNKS

Target: NAD-dependent deacetylase Sirtuin 1 (human, UniProt Q96EB6)
Assay: primary screen, delta tm
Design: single well (n = 1, as 'the same TSA')
Conditions: 10 µM

SMILES | TSA(with NAD+) / Primary screening (TSA) / delta Tm (K)
CCOc1ccc2nc(NN=C3C(=O)NC(=S)NC3=O)sc2c1 | -0.02
O=c1cc(CSc2nnc(Nc3ccccc3)s2)c2ccc(O)cc2o1 | 0.13
COc1ccc(O)c(/C(C)=N/Nc2nc(C)cc(O)n2)c1 | -0.03
NC(=O)c1ccc(NC(=O)c2cc(-c3ccccc3)nc3ccccc23)cc1 | -0.01
COC(=O)NC(CC(C)C)C(=O)NCc1cc(C)nc2ccccc12 (stereo not shown) | -0.06
CCOCCCN1C(=O)/C(=C/c2c(N3CCC(C)CC3)nc3ccc(C)cn3c2=O)SC1=S | 0.07
c1ccc(-c2cnc(CSc3nc4ccccc4o3)o2)cc1 | -0.02
COc1ccc(OC)c2c1CN(C(C)c1nc(C3CC3)no1)CC2O (stereo not shown) | -0.08
CN(Cc1ccc(F)cc1)c1cc(=O)n2ccccc2n1 | -0.01
CCC(N)CC(=O)O (stereo not shown) | -0.22
C=CCOc1cccc(C2C(C(=O)c3ccc(C)o3)=C(O)C(=O)N2CCCN2CCOCC2)c1 (stereo not shown) | -0.06
CCc1c(C)nc2ccccc2c1N1CCN2C(=O)C(=O)NCC2C1 (stereo not shown) | -0.11
CC1(C)C(NC(=O)C2CC(c3cccc(F)c3)=NO2)C2CCOC21 (stereo not shown) | -0.14
N#C/C(=C/c1ccc(-c2cccc(Cl)c2)o1)C(=O)Nc1cccc2ncccc12 | 0.07
O=C(Nc1ccc(S(=O)(=O)N2CCOCC2)cc1)C1=COCCO1 | -0.11
COc1ccc(/C=N/c2ccc(C(=O)O)cc2)cc1Br | -0.19
Cc1ccc(S(=O)(=O)N2CCN(C(=O)CSc3nnc(NCc4ccco4)s3)CC2)cc1 | -0.03
Cc1nc2c(C(N)=O)ncn2c(C)c1CCC(=O)NCCSc1ccccc1 | 0.01
Cc1ccc(S(=O)(=O)NCc2ccco2)cc1C(=O)NCc1ccccc1-n1cccn1 | -0.24
CN(C)c1c(F)cc(C(=N)N)cc1F | -0.11
CC(=O)c1sc(NC(=O)c2cnc3ccccc3n2)nc1-c1ccccc1 | 0.09
CCO/C=C1/C(=O)N(c2ccc(S(=O)(=O)N3CCOCC3)cc2)C(=O)c2ccccc21 | -0.05
O=C(CCn1[nH]c(=O)ccc1=O)Nc1cccc2cccnc12 | -0.11

Looked up above:
TSA(with NAD+) / Primary screening (TSA) / delta Tm (K), COc1ccc(O)c(/C(C)=N/Nc2nc(C)cc(O)n2)c1 is entered as -0.03
TSA(with NAD+) / Primary screening (TSA) / delta Tm (K), NC(=O)c1ccc(NC(=O)c2cc(-c3ccccc3)nc3ccccc23)cc1 is entered as -0.01
TSA(with NAD+) / Primary screening (TSA) / delta Tm (K), O=C(CCn1[nH]c(=O)ccc1=O)Nc1cccc2cccnc12 is entered as -0.11

(next part)

SMILES | TSA(with NAD+) / Primary screening (TSA) / delta Tm (K)
C=CCOc1ccc(C(=O)C2=C(O)C(=O)N(CCCN3CCOCC3)C2c2ccc(F)cc2)cc1 (stereo not shown) | -0.11
Fc1ccc2[nH]cc(C3CCNCC3)c2c1 | -0.11
CSCCOC(=O)c1ccc2[nH]c(C(F)F)nc2c1 | -0.21
c1nc(N2CCNCC2)c2sccc2n1 | -0.01
CCCOc1cccc(C2C(C(=O)c3ccc(C)o3)=C(O)C(=O)N2CCCN2CCOCC2)c1 (stereo not shown) | -0.12
CCCCc1ccc(Nc2nnc(SCC(=O)Nc3ccc(N4CCN(Cc5ccccc5)CC4)cc3)s2)cc1 | 0.02
CC(C)c1nnc(S)[nH]1 | -0.03
COCCN(CC(=O)Nc1ccccc1C(F)(F)F)C(=O)Cc1csc(-c2ccsc2)n1 | -0.06
NC(=O)C1CCN(c2ncnc3sc4c(c23)CCC4)CC1 | -0.04
CC(Nc1cccc(C(N)=O)c1)C1CN(Cc2ccccc2)CCO1 (stereo not shown) | -0.15
COC(=O)c1ccc2[nH]c3c(c2c1)CN(C(=O)C(C)C)CC3 | 0.07
COc1ccc(-c2cc(NC(=O)CCNC(=O)c3ccc(Cl)cc3)ccc2OC(F)F)cc1 | 0.45
c1ccc2c(c1)CCC/C2=N/Nc1nc2ccccc2[nH]1 | -0.15
CC(OC(=O)c1ccccc1NS(=O)(=O)c1ccc2c(c1)OCCO2)C(=O)NC(C)C1CC2CCC1C2 (stereo not shown) | -0.11
CC(C)(C)CC(NCc1ccc(S(=O)(=O)CCO)cc1)C1CC1 (stereo not shown) | -0.14
CSc1nnnn1-c1cccc(NC(=O)NC(C)C2CCCO2)c1 (stereo not shown) | -0.02
c1ccc(-n2ncc3c(N4CCCC4)ncnc32)cc1 | 0.02
O=C(NCCS(=O)(=O)N1CCc2ccccc21)Nc1ccn(Cc2ccccc2)n1 | -0.03
CC(NC(=O)Cn1ccc(=O)c2ccccc21)C12CC3CC(CC(C3)C1)C2 (stereo not shown) | -0.01
Cc1nc2cc(C(=O)Nc3ccc(NC(=O)N4CCCCCC4)cc3)ccc2n1C | 0.07
N#Cc1ccccc1S(=O)(=O)N1CCCC(c2cc(C(N)=O)[nH]n2)C1 (stereo not shown) | -0.18
Cc1ccc(N(C)S(=O)(=O)c2cccc(C(=O)Nc3ncc(C)s3)c2)cc1 | -0.06
COc1cccc(NC(=O)c2cccc(S(=O)(=O)N(C)c3ccc(C)cc3)c2)c1 | -0.06
